Assay results published in paper PMC4264851.
No constants are given. Whether binding was seen depends on the method and setting. Binding seen in cells or lysates may run through a third protein. Here binding means that the protein was enriched with, or labelled near, the bait; the list need not be complete. Tags and fused reporters may be left off the sequences shown. Blank lines part the entries; values can stand above or below the binder they belong to.

How the values were obtained:
[1] = molecular target: T1, Utp12-FLAG (S. cerevisiae) (UniProt Q12220); test: affinity purification with mass spectrometry; Pwp2, Utp6-HA, Utp12-FLAG, Utp13, Utp18 and Utp21 co-expressed in SF21 cells (bacmid K1992); one-step, bait Utp12-FLAG on anti-FLAG affinity matrix, FLAG peptide elution; SDS-PAGE, Coomassie, MS of bands
T1 sequence: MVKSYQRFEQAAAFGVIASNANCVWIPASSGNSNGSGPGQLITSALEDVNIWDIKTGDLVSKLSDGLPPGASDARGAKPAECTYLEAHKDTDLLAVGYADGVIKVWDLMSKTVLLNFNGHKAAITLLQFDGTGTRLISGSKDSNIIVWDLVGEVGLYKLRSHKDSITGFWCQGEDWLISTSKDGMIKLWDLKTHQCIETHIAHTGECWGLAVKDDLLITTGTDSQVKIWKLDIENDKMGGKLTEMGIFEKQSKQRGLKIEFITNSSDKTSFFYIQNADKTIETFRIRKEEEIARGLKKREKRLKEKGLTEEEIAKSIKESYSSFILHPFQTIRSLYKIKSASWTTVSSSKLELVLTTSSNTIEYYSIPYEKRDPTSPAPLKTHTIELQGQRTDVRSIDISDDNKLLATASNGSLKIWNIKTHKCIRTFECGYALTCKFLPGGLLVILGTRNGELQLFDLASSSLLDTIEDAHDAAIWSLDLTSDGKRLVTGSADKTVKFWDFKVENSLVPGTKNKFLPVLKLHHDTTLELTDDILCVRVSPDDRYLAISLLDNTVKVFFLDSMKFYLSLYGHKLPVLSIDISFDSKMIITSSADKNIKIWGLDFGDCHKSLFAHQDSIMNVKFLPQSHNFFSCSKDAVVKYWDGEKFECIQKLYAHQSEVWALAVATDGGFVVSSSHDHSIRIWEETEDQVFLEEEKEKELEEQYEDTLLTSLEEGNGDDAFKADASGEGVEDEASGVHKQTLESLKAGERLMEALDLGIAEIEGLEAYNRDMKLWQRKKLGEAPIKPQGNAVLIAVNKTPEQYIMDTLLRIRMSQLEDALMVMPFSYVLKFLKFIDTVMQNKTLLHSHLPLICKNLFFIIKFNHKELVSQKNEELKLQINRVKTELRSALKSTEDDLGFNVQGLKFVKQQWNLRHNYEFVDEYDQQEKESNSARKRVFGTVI

Nan1-HA (S. cerevisiae) = molecular target: T2, Nan1-HA (S. cerevisiae) (UniProt Q02931); test: affinity purification with mass spectrometry; bacmid K2000 (all seven tUTP candidates); two-step: anti-FLAG eluate (Utp15-FLAG) purified again on anti-HA affinity matrix with Nan1-HA as bait, HA peptide elution; SDS-PAGE, Coomassie, MS of bands
T2 sequence: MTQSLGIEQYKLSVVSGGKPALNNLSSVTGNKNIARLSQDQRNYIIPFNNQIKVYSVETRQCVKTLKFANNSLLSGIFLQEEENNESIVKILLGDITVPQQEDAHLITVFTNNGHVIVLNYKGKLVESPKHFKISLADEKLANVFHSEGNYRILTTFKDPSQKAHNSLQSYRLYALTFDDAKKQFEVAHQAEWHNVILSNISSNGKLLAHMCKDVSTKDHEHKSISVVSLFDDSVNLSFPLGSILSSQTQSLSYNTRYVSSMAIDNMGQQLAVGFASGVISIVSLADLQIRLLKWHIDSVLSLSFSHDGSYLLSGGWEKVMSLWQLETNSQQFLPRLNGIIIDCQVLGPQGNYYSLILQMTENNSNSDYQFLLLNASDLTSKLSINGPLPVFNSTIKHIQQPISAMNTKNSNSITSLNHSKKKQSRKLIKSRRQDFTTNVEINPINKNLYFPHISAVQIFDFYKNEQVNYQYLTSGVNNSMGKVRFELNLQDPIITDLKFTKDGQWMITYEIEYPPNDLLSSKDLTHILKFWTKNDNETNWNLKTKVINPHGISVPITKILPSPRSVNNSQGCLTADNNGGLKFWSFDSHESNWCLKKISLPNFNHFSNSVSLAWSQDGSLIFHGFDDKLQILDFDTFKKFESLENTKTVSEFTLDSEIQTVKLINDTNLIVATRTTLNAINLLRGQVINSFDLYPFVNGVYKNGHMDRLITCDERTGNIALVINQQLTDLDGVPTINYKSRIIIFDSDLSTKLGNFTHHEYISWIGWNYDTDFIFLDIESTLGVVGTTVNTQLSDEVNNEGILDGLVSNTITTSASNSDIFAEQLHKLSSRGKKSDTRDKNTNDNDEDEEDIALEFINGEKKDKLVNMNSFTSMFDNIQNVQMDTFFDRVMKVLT

[2] = molecular target: T3, Utp15-FLAG (S. cerevisiae) (UniProt Q04305); test: affinity purification with mass spectrometry; Utp4, Utp5, Utp8, Utp9, Utp10, Utp15-FLAG and Nan1-HA co-expressed in SF21 cells (bacmid K2000); one-step, bait Utp15-FLAG on anti-FLAG affinity matrix, lysate cleared by low-speed centrifugation, buffer A100+ (20 mM Tris-HCl pH 8, 100 mM KCl, 5 mM Mg(OAc)2, 0.5% Triton X-100, 0.1% Tween-20), 4°C, FLAG peptide elution; SDS-PAGE, Coomassie, MS of bands
T3 sequence: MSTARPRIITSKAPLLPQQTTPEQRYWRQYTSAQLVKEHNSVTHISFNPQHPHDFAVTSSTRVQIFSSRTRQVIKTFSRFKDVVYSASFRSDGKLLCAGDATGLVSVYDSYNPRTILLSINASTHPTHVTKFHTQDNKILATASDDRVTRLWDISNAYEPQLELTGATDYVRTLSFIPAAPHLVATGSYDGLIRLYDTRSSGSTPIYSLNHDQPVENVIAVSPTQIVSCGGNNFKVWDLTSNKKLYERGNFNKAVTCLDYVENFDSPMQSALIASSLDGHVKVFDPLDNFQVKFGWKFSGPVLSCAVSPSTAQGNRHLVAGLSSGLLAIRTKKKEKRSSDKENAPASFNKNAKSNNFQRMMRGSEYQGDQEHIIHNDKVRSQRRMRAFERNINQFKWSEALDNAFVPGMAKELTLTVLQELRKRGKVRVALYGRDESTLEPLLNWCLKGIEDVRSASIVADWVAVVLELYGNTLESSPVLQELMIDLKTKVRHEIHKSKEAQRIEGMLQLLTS

[3] = molecular target: T3, Utp15-FLAG (S. cerevisiae); test: affinity purification with mass spectrometry; bacmid K2123 (five pentamer proteins); two-step: IgG Sepharose/TEV eluate (Utp4-TAP) purified again on anti-FLAG affinity matrix with Utp15-FLAG as bait, FLAG peptide elution; SDS-PAGE, Coomassie, MS of bands

B1: Utp6-HA (protein, UniProt Q02354 1-440)
chain: MSKTRYYLEQCIPEMDDLVEKGLFTKNEVSLIMKKRTDFEHRLNSRGSSINDYIKYINYESNVNKLRAKRCKRILQVKKTNSLSDWSIQQRIGFIYQRGTNKFPQDLKFWAMYLNYMKARGNQTSYKKIHNIYNQLLKLHPTNVDIWISCAKYEYEVHANFKSCRNIFQNGLRFNPDVPKLWYEYVKFELNFITKLINRRKVMGLINEREQELDMQNEQKNNQAPDEEKSHLQVPSTGDSMKDKLNELPEADISVLGNAETNPALRGDIALTIFDVCMKTLGKHYINKHKGYYAISDSKMNIELNKETLNYLFSESLRYIKLFDEFLDLERDYLINHVLQFWKNDMYDLSLRKDLPELYLKTVMIDITLNIRYMPVEKLDIDQLQLSVKKYFAYISKLDSASVKSLKNEYRSYLQDNYLKKMNAEDDPRYKILDLIISKL
- binding [1]: binds

B3: Utp4-TAP (protein, UniProt Q06679 1-776)
chain: MSSSLLSVLKEKSRSLKIRNKPVKMTSQERMIVHRCRFVDFTPATITSLAFSHKSNINKLTPSDLRLAIGRSNGNIEIWNPRNNWFQEMVIEGGKDRSIEGLCWSNVNGESLRLFSIGGSTVVTEWDLATGLPLRNYDCNSGVIWSISINDSQDKLSVGCDNGTVVLIDISGGPGVLEHDTILMRQEARVLTLAWKKDDFVIGGCSDGRIRIWSAQKNDENMGRLLHTMKVDKAKKESTLVWSVIYLPRTDQIASGDSTGSIKFWDFQFATLNQSFKAHDADVLCLTTDTDNNYVFSAGVDRKIFQFSQNTNKSQKNNRWVNSSNRLLHGNDIRAICAYQSKGADFLVSGGVEKTLVINSLTSFSNGNYRKMPTVEPYSKNVLVNKEQRLVVSWSESTVKIWTMGTDSSTEQNYKLVCKLTLKDDQNISTCSLSPDGQVLVVGRPSTTKVFHLQPVGNKLKVTKLDNDLLLRTSTKLVKFIDNSKIVICSCEDDVFIVDLESEEDEKPQEVELLEVTSTKSSIKVPYINRINHLEVDQNIAVISRGCGVVDILDLKARISKPLARLNNFITAVHINTSRKSVVVITADNKIYEFNMNLNSEAENEDSESVLTQWSKNNTDNLPKEWKTLKENCVGIFSDIENSSRLWFWGATWISRIDFDVDFPINKRRKQKKRTHEGLTITDESNFMNDEEDDEDDDIDMEISENLNVLLNQGNKIKSTDVQRNEESSGHFFFTDKYKPLLFVDLISSNELAIIERNPLTFHSKQKAFIQPKLVF
- binding [3]: binds

More lines, now with the values ahead:

- binding (Nan1-HA (S. cerevisiae)): binds weakly
- binding [2]: binds
B2: Utp4 (protein, UniProt Q06679 1-776)
chain: B3 chain

- binding [2]: binds weakly
B4: Nan1-HA (protein, UniProt Q02931 1-896)
chain: T2 sequence
